Measurements from patent publication EP3454861B1, “BENZOXAZINE OR QUINAZOLINE DERIVATIVES FOR USE IN THE TREATMENT OF ALZHEIMER'S DISEASE” (Biocodex, priority 2016, dated 2017).

What was measured:
Type in all cases: in vivo, souris
Settings in all cases: Aβ25-35/DPZ 1 (1 mg/kg IP)
[1] = test system: Bax; assay: ELISA of Bax in mouse hippocampus after Aβ25-35
Source text: (§1) Le 1^er jour : une version « mélangée » (scrambled) du peptide amyloïde β25-35 (Sc.Aβ, témoin négatif) ou le peptide amyloïde β25-35 (Aβ25-35) est injecté par voie intra-cérébroventriculaire (ICV) (le peptide Aβ25-35 provoque l'intoxication cellulaire). Entre le 1^er jour et le 10^ème jour, les traitements sont administrés une fois par jour par voie intrapéritonéale (IP).
(§2) A la fin de la session de rétention d'évitement passif, le 10^ème jour, les animaux sont sacrifiés par décapitation. L'hippocampe et le cortex frontal sont disséqués et congelés dans l'azote liquide. L'hippocampe est utilisé pour mesurer le taux de peroxydation lipidique à l'aide d'une méthode colorimétrique et pour évaluer les taux de 4 marqueurs biochimiques par des tests ELISA. Le cortex est conservé à -80°C en attente d'analyses supplémentaires. Les plasmas sont également conservés en attente d'analyses supplémentaires. Les échantillons biologiques sont jetés après 3 mois.
(§3) Pour tous les dosages, les […] sont homogénéisés, après décongélation, dans un tampon Tris (Tris 50 mM, 150 mM NaCl, pH 7,5) et traités par ultrasons pendant 20 secondes. […] Pour chaque dosage, l'absorbance est lue à 450 nm et la concentration est calculée en utilisant la courbe standard. Les résultats sont exprimés en pg ou ng de marqueur par mg de tissu et en pourcentage de solution Sc.Aβ + véhicule. […]

[2] = test system: Bcl2; assay: ELISA of Bcl2 in mouse hippocampus after Aβ25-35
Source text: as §1, §2, §3

[3] = test system: Caspase-3; assay: ELISA of Caspase-3 in mouse hippocampus after Aβ25-35
Source text: as §1, §2, §3

[4] = test system: GFAP; assay: ELISA of GFAP in mouse hippocampus after Aβ25-35
Source text: as §1, §2, §3

## COc1cc2c(cc1OC)C(=O)C(CC1CCN(Cc3ccccc3)CC1)C2.Cl.O (stereo not shown) [Donépézil, 2-[(1-benzyl-4-piperidyl)methyl]-5,6-dimethoxy-2,3-dihydroinden-1-one, hydrochloride, hydrate (1:1:1)]
[1]
  Taux de protéine Bax: 95,7 ± 4,3 % de Sc.Aβ/V
[2]
  Taux de protéine Bcl2: 100,3 ± 3 % de Sc.Aβ/V
[3]
  Expression CASP-3: 98,7 ± 4,3 % de Sc.Aβ/V
[4]
  Expression GFAP: 110,3 ± 6,8 % de Sc.Aβ/V
